Measurements taken from the supplement of paper PMC12067093, “Discovery and optimisation of a covalent ligand for TRIM25 and its application to targeted protein ubiquitination” (Chemical Science, 2025).
The list shows a part of the results.

Chains of the proteins cited; added tags and fusions are not shown. Lines headed by an entry give the natural chain unless they say otherwise; changes in a name come on top.
UniProt Q7L0Y3: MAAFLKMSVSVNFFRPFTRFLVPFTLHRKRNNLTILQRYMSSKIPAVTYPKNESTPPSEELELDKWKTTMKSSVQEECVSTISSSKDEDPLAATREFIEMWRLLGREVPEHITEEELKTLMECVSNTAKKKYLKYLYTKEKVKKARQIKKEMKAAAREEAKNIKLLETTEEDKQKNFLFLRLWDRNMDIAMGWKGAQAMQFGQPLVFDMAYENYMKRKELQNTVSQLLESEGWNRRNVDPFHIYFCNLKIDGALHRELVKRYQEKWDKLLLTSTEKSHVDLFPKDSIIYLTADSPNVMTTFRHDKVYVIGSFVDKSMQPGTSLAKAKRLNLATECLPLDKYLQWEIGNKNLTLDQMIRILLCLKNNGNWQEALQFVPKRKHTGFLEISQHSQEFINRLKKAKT
UniProt Q15654: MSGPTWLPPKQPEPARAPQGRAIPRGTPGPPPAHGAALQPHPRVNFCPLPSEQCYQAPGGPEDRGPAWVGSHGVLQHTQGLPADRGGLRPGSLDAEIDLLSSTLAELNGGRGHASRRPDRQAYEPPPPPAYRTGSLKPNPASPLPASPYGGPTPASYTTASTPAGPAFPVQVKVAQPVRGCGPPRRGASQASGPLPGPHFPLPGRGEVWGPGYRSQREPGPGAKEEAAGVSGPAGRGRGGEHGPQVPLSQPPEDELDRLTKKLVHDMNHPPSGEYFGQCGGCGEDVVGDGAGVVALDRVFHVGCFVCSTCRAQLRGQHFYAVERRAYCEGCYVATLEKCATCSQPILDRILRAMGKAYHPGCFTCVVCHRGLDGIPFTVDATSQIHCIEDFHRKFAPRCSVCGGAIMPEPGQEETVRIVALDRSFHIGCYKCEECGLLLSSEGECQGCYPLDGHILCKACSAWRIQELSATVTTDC
UniProt P29144: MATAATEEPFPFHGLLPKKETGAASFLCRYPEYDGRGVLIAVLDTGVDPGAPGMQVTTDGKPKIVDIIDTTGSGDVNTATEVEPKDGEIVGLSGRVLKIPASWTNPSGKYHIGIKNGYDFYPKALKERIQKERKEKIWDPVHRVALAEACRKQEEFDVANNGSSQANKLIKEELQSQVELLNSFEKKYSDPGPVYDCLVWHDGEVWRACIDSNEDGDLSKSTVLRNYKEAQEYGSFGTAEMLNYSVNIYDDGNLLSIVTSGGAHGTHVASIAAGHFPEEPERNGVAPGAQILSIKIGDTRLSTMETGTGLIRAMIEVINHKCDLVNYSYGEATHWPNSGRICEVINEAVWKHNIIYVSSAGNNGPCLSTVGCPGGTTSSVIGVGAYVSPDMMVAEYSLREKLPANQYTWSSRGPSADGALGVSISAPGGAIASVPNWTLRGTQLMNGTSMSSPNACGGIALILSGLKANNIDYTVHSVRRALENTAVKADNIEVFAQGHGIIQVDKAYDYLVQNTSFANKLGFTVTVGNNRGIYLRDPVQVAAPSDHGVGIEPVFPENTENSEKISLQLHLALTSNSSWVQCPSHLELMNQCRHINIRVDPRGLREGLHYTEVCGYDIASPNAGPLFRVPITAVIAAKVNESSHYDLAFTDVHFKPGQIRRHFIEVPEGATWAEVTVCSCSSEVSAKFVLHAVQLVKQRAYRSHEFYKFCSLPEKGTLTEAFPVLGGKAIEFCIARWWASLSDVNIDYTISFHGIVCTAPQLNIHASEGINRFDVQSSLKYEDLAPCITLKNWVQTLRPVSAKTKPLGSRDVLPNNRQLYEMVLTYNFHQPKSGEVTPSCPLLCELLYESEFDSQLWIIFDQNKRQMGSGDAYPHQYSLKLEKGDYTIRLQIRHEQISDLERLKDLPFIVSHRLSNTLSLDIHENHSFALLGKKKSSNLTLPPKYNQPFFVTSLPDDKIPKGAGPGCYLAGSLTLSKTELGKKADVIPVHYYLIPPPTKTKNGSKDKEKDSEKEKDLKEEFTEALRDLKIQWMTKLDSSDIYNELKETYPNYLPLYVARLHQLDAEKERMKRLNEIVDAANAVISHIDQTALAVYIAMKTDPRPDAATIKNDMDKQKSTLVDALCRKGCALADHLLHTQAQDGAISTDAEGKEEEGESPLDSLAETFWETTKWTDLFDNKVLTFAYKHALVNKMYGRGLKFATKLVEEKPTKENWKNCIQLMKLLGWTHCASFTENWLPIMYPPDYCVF
UniProt Q14258, whole entry, looked up: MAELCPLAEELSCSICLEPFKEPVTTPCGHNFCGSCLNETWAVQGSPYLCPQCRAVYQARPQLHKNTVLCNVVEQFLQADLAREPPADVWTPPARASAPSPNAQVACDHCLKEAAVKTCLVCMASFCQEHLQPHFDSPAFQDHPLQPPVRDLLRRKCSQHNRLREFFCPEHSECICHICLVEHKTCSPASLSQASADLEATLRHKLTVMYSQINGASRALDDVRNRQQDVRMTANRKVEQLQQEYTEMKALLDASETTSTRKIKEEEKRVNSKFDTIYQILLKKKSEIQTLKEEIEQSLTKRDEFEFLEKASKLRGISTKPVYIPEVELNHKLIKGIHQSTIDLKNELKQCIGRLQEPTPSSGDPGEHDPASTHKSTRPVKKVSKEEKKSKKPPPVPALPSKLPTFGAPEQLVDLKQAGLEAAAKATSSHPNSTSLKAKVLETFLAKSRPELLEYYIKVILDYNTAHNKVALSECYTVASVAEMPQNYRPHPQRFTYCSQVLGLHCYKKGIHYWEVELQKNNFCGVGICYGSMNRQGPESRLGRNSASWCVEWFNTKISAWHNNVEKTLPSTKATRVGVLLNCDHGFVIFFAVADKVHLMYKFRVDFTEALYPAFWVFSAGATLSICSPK
UniProt Q9UL33, whole entry, looked up: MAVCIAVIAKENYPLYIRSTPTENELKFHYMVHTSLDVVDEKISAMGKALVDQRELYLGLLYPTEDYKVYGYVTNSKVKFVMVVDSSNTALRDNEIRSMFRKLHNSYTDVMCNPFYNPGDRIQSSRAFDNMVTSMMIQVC
UniProt O15050: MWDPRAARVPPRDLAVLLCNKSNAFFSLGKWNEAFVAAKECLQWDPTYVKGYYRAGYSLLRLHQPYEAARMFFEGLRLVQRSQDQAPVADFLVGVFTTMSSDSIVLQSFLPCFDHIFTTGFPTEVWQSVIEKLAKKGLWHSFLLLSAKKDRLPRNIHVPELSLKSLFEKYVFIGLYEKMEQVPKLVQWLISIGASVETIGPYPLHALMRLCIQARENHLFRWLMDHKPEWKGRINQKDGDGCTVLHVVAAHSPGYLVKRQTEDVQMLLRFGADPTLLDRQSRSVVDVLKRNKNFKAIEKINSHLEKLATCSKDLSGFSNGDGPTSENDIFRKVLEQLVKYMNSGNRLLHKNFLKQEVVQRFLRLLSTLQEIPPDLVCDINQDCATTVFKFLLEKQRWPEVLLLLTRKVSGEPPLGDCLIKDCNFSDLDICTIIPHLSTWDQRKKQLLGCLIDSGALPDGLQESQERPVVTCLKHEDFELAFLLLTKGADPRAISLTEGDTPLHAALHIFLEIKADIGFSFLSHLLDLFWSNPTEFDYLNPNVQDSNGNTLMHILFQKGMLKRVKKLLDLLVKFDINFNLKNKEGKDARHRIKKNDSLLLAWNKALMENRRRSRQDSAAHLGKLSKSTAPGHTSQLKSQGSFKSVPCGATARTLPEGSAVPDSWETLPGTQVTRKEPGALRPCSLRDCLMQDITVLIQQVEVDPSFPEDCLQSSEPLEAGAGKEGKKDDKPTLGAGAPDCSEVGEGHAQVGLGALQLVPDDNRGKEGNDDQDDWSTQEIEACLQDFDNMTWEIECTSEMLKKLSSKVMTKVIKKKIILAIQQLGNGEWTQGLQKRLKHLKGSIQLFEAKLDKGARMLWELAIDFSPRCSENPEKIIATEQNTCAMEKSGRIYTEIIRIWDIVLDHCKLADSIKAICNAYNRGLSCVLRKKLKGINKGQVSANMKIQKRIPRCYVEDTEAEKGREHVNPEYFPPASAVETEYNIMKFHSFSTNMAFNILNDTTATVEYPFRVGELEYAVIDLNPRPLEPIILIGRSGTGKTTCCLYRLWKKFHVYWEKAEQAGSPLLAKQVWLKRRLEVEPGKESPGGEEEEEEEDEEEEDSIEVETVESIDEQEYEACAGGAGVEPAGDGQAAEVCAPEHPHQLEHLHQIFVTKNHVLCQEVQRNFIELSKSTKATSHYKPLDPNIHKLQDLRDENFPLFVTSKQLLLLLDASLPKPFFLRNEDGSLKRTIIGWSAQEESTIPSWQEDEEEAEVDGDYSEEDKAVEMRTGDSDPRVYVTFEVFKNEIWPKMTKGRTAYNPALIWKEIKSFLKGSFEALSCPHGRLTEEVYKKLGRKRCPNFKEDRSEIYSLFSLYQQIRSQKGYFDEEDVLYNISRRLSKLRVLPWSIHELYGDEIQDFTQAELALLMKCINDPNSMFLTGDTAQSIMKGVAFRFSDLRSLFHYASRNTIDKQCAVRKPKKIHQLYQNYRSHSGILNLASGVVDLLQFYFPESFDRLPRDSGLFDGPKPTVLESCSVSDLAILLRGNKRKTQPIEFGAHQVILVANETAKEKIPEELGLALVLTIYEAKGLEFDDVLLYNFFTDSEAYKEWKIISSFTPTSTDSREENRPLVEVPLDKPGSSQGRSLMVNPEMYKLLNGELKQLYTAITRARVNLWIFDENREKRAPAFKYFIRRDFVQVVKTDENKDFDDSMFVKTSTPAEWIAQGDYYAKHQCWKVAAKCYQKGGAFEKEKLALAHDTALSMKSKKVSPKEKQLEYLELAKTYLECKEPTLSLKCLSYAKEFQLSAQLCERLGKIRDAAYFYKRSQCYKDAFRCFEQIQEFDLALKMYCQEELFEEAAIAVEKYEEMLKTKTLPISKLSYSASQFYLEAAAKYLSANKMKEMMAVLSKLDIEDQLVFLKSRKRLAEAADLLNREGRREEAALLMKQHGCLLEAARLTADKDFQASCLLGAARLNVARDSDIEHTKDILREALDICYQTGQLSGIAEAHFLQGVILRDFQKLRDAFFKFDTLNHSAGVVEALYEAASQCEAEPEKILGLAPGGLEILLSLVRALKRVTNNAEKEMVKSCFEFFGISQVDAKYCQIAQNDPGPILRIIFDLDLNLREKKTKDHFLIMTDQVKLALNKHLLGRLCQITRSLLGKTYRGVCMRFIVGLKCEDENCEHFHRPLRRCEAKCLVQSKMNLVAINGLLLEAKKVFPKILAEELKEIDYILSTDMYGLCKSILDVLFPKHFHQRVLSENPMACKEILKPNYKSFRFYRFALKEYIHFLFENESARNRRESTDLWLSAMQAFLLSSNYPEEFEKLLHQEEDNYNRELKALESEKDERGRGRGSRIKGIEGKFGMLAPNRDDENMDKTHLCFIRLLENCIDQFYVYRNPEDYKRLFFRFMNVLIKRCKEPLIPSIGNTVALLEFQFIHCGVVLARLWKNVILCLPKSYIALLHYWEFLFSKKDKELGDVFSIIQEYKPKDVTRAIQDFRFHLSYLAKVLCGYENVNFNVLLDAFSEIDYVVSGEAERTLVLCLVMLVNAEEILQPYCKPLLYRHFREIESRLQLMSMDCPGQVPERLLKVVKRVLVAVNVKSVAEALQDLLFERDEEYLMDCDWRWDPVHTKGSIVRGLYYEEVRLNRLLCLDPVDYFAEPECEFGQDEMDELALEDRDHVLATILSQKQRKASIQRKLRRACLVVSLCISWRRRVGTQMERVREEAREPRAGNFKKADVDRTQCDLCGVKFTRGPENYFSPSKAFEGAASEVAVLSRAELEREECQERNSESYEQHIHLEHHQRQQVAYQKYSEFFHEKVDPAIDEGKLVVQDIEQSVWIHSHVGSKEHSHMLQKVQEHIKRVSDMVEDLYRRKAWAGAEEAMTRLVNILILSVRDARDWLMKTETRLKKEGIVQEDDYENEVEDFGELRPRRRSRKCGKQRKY
UniProt O14773: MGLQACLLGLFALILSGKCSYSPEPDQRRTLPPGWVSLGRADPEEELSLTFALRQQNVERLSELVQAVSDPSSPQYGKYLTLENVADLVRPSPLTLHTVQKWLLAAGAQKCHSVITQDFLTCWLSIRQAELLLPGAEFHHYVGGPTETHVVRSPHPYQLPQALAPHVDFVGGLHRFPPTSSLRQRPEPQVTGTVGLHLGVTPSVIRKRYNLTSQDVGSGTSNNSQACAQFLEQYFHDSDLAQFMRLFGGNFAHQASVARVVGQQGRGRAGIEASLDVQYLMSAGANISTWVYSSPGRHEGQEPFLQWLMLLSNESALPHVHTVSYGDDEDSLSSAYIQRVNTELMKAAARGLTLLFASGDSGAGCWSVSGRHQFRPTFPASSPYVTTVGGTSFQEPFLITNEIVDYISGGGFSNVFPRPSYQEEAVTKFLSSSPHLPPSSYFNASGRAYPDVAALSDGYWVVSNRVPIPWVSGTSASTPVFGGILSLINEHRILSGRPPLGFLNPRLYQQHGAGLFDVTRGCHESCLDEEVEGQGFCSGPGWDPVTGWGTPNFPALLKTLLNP

Compound: CC1Cc2ccccc2N1C(=O)C1CCCN(C1)C(=O)CCl (mixture of isomers) [TRIM25 ligand 11 (diastereomer mixture)]
Experiment: probe-labelled cysteine peptide fold change vs DMSO (competition) (log2 fold change); higher = less target engagement (more negative = stronger competition)
Conditions: THP-1, incubation time: 4 h
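Note: competitive chemoproteomic profiling in live THP-1 cells with an iodoacetamide desthiobiotin (IA-DTB) probe, comparing probe-labelled peptide intensities in compound-treated cells against DMSO-treated controls.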

TRMT1L_Q7Z2T5_320_VTINDLNENSVTLIQENCHLNK (UniProt Q7Z2T5)
probe-labelled cysteine peptide fold change (10 µM): -0.0172
probe-labelled cysteine peptide fold change (50 µM): -0.0306

TRMT10C_Q7L0Y3_78_SSVQEECVSTISSSKDEDPLAATR (UniProt Q7L0Y3)
probe-labelled cysteine peptide fold change (10 µM): 0.052
probe-labelled cysteine peptide fold change (50 µM): -0.25

TRAPPC9_Q96Q05_904_QCHLLLDVFNSTEHELTVSTR (UniProt Q96Q05)
probe-labelled cysteine peptide fold change (10 µM): 0.218
probe-labelled cysteine peptide fold change (50 µM): 0.122

TRAPPC11_Q7Z392_117_QSECATR (UniProt Q7Z392)
probe-labelled cysteine peptide fold change (10 µM): 0.0194
probe-labelled cysteine peptide fold change (50 µM): 0.0465

TRAF2_Q12933_223_FHAIGCLETVEGEK (UniProt Q12933)
probe-labelled cysteine peptide fold change (10 µM): -0.0116
probe-labelled cysteine peptide fold change (50 µM): 0.0184

TRIP6_Q15654_387_GLDGIPFTVDATSQIHCIEDFHR (UniProt Q15654)
probe-labelled cysteine peptide fold change (10 µM): -0.016
probe-labelled cysteine peptide fold change (50 µM): -0.0556

TRIM28_Q13263_232_DCQLNAHK (UniProt Q13263)
probe-labelled cysteine peptide fold change (10 µM): -0.0189
probe-labelled cysteine peptide fold change (50 µM): -0.0334

TRIP12_Q14669_502_SVVPALITLLQMEHNFDIMNHACR (UniProt Q14669)
probe-labelled cysteine peptide fold change (10 µM): 0.00752
probe-labelled cysteine peptide fold change (50 µM): -0.0762

TRAF6_Q9Y4K3_249_EQMPNHYDLDCPTAPIPCTFSTFGCHEK (UniProt Q9Y4K3)
probe-labelled cysteine peptide fold change (10 µM): -0.0227
probe-labelled cysteine peptide fold change (50 µM): -0.125

TRA2A_Q13595_120_ANPDPNTCLGVFGLSLYTTER (UniProt Q13595)
probe-labelled cysteine peptide fold change (10 µM): 0.142
probe-labelled cysteine peptide fold change (50 µM): -0.0966

TPP2_P29144_1218_NCIQLMK (UniProt P29144)
probe-labelled cysteine peptide fold change (10 µM): 0.0168
probe-labelled cysteine peptide fold change (50 µM): 0.124

TRIM25_Q14258_174+176_EFFCPEHSECICHICLVEHK (UniProt Q14258)
probe-labelled cysteine peptide fold change (10 µM): 0.035
probe-labelled cysteine peptide fold change (50 µM): -0.0657

TPP2_P29144_710_FCSLPEK (UniProt P29144)
probe-labelled cysteine peptide fold change (10 µM): -0.0483
probe-labelled cysteine peptide fold change (50 µM): -0.202

TRIOBP_Q9H2D6_2271_GFIASQGMGNGCGR (UniProt Q9H2D6)
probe-labelled cysteine peptide fold change (10 µM): -0.0571
probe-labelled cysteine peptide fold change (50 µM): -0.279

TRIM36_Q9NQ86_212_ILMCPEHETER (UniProt Q9NQ86)
probe-labelled cysteine peptide fold change (10 µM): -0.0219
probe-labelled cysteine peptide fold change (50 µM): -0.0877

TRAPPC8_Q9Y2L5_505_CVLLSAELLK (UniProt Q9Y2L5)
probe-labelled cysteine peptide fold change (10 µM): -0.0145
probe-labelled cysteine peptide fold change (50 µM): 0.0327

TRIP4_Q15650_541_EQFPDISQESDSPFVFICK (UniProt Q15650)
probe-labelled cysteine peptide fold change (10 µM): -0.149
probe-labelled cysteine peptide fold change (50 µM): 0.138

TREX1_Q9NSU2_35_VTELCLLAVHR (UniProt Q9NSU2)
probe-labelled cysteine peptide fold change (10 µM): -0.0721
probe-labelled cysteine peptide fold change (50 µM): 0.0463

TRAPPC2L_Q9UL33_112_LHNSYTDVMCNPFYNPGDR (UniProt Q9UL33)
probe-labelled cysteine peptide fold change (10 µM): 0.174
probe-labelled cysteine peptide fold change (50 µM): -0.235

TRANK1_O15050_1947_DFQASCLLGAAR (UniProt O15050)
probe-labelled cysteine peptide fold change (10 µM): 0.136
probe-labelled cysteine peptide fold change (50 µM): 0.0594

TPP1_O14773_122_CHSVITQDFLTCWLSIR (UniProt O14773)
probe-labelled cysteine peptide fold change (10 µM): -0.183
probe-labelled cysteine peptide fold change (50 µM): 0.37

TPP1_O14773_111+122_CHSVITQDFLTCWLSIR (UniProt O14773)
probe-labelled cysteine peptide fold change (10 µM): 0.138
probe-labelled cysteine peptide fold change (50 µM): -0.0762

TRIT1_Q9H3H1_298_CTLETSNQLLK (UniProt Q9H3H1)
probe-labelled cysteine peptide fold change (10 µM): -0.0228
probe-labelled cysteine peptide fold change (50 µM): -0.0748

TRIP6_Q15654_387_GLDGIPFTVDATSQIHCIEDFHRK (UniProt Q15654)
probe-labelled cysteine peptide fold change (10 µM): 0.112
probe-labelled cysteine peptide fold change (50 µM): -0.158

TRMT112_Q9UI30_33_ICPVEFNPNFVAR (UniProt Q9UI30)
probe-labelled cysteine peptide fold change (10 µM): -0.296
probe-labelled cysteine peptide fold change (50 µM): -0.14

TPP2_P29144_209_ACIDSNEDGDLSK (UniProt P29144)
probe-labelled cysteine peptide fold change (10 µM): 0.0955
probe-labelled cysteine peptide fold change (50 µM): -0.018

TPRN_Q4KMQ1_536_EAEEEEASCLLGPTLK (UniProt Q4KMQ1)
probe-labelled cysteine peptide fold change (10 µM): 0.175
probe-labelled cysteine peptide fold change (50 µM): -0.274

TRIP6_Q15654_476_IQELSATVTTDC (UniProt Q15654)
probe-labelled cysteine peptide fold change (10 µM): -0.0843
probe-labelled cysteine peptide fold change (50 µM): 0.217

TRAF3_Q13114_141_NDCHFEELPCVRPDCK (UniProt Q13114)
probe-labelled cysteine peptide fold change (10 µM): -0.114
probe-labelled cysteine peptide fold change (50 µM): -0.0423

TRIM25_Q14258_176+179_LREFFCPEHSECICHICLVEHK (UniProt Q14258)
probe-labelled cysteine peptide fold change (10 µM): -0.0657
probe-labelled cysteine peptide fold change (50 µM): 0.023

TRMT10C_Q7L0Y3_335_LNLATECLPLDK (UniProt Q7L0Y3)
probe-labelled cysteine peptide fold change (10 µM): -0.068
probe-labelled cysteine peptide fold change (50 µM): 0.0778

TRIM56_Q9BRZ2_202_LDPHLDHPCLPLAEAVR (UniProt Q9BRZ2)
probe-labelled cysteine peptide fold change (10 µM): 0.0485
probe-labelled cysteine peptide fold change (50 µM): 0.0817

TRAPPC10_P48553_560_HFCQEILDFASQPSDSPGHK (UniProt P48553)
probe-labelled cysteine peptide fold change (10 µM): 0.102
probe-labelled cysteine peptide fold change (50 µM): 0.0533

TRANK1_O15050_1930_QHGCLLEAAR (UniProt O15050)
probe-labelled cysteine peptide fold change (10 µM): -0.0212
probe-labelled cysteine peptide fold change (50 µM): 0.0823

TRAPPC13_A5PLN9_127_LNLSASNAAVAELKPDCCIDDVIHHEVK (UniProt A5PLN9)
probe-labelled cysteine peptide fold change (10 µM): 0.241
probe-labelled cysteine peptide fold change (50 µM): 0.12

TRIM33_Q9UPN9_943_DIGKPEVEYDCDNLQHSK (UniProt Q9UPN9)
probe-labelled cysteine peptide fold change (10 µM): -0.0255
probe-labelled cysteine peptide fold change (50 µM): -0.0943

TRIM25_Q14258_70_NTVLCNVVEQFLQADLAR (UniProt Q14258)
probe-labelled cysteine peptide fold change (10 µM): -0.104
probe-labelled cysteine peptide fold change (50 µM): -0.142

TRIM25_Q14258_186_TCSPASLSQASADLEATLR (UniProt Q14258)
probe-labelled cysteine peptide fold change (10 µM): -0.0439
probe-labelled cysteine peptide fold change (50 µM): 0.359

TPP2_P29144_342_ICEVINEAVWK (UniProt P29144)
probe-labelled cysteine peptide fold change (10 µM): 0.0161
probe-labelled cysteine peptide fold change (50 µM): 0.0391

TRIM28_Q13263_717_VLLALFCHEPCR (UniProt Q13263)
probe-labelled cysteine peptide fold change (10 µM): 0.073
probe-labelled cysteine peptide fold change (50 µM): 0.00363

TRIM28_Q13263_229_HEPLVLFCESCDTLTCR (UniProt Q13263)
probe-labelled cysteine peptide fold change (10 µM): -0.075
probe-labelled cysteine peptide fold change (50 µM): 0.0103
